From patent US11135246B2, “Peptides and combination of peptides for use in immunotherapy against leukemias and other cancers” (Immatics Biotechnologies GmbH, priority 2017, dated 2021)

Test system: HLA molecules of primary tumor samples
Test: Identification of tumor associated peptides presented on the cell surface (HLA immune precipitation, LC-MS)
Design: species or system human
Settings: for Peptide Presentation on cancer entities: entities on which the peptide was presented, CLL = chronic lymphocytic leukemia, AML = acute myeloid leukemia, CML = Chronic myeloid leukemia; for Peptide Presentation on tumor types: tumor entities on which the peptide was found presented (Table 8b)

Substance: 264 (SEDHSGSYW; listed as Homo sapiens) [compound 264]
- Peptide Presentation on cancer entities: CLL
- Peptide Presentation on tumor types: CRC, GC, MEL, NHL, NSCLCadeno, NSCLCsquam

Substance: 73 (TYPQLEGFKF; listed as Homo sapiens) [compound 73]
- Peptide Presentation on cancer entities: CLL
- Peptide Presentation on tumor types: BRCA, CRC, GBC, GC, GEJC, HCC, MEL, NHL, NSCLCadeno, NSCLCother, NSCLCsquam, OC, OSCAR, PACA, PRCA, SCLC, UBC, UEC

Substance: 124 (SESLPKEAF; listed as Homo sapiens) [compound 124]
- Peptide Presentation on cancer entities: CLL
- Peptide Presentation on tumor types: BRCA, CCC, CRC, GBC, GBM, GC, GEJC, HCC, HNSCC, MEL, NHL, NSCLCadeno, NSCLCother, NSCLCsquam, OC, OSCAR, PACA, PRCA, RCC, SCLC, UBC, UEC

Substance: 145 (AEPLVGQRW; listed as Homo sapiens) [compound 145]
- Peptide Presentation on cancer entities: CLL
- Peptide Presentation on tumor types: NHL, PRCA, UBC

Substance: 227 (APINKAGSFL; listed as Homo sapiens) [compound 227]
- Peptide Presentation on cancer entities: CLL
- Peptide Presentation on tumor types: MEL, NHL, OC

Substance: 119 (DLRTKEVVF; listed as Homo sapiens) [compound 119]
- Peptide Presentation on cancer entities: CLL
- Peptide Presentation on tumor types: GC, NHL

Substance: 71 (RYLGKNWSF; listed as Homo sapiens) [compound 71]
- Peptide Presentation on cancer entities: AML
- Peptide Presentation on tumor types: GBC, OC, RCC

Substance: 188 (YVDAGTPMY; listed as Homo sapiens) [compound 188]
- Peptide Presentation on cancer entities: CLL
- Peptide Presentation on tumor types: GBC, GBM, GC, NSCLCadeno, NSCLCsquam

Substance: 243 (LPKVQSIQL; listed as Homo sapiens) [compound 243]
- Peptide Presentation on cancer entities: CLL
- Peptide Presentation on tumor types: CCC, HCC, NSCLCadeno, NSCLCsquam, OC, OSCAR, RCC

Substance: 27 (RLIAKEMNI; listed as Homo sapiens) [compound 27]
- Peptide Presentation on cancer entities: CLL
- Peptide Presentation on tumor types: HCC, NHL

Substance: 6 (VTEGVAQTSFY; listed as Homo sapiens) [compound 6]
- Peptide Presentation on cancer entities: CLL
- Peptide Presentation on tumor types: BRCA, CCC, GBC, GBM, GC, GEJC, HCC, HNSCC, MEL, NHL, NSCLCadeno, NSCLCother, NSCLCsquam, OC, OSCAR, PACA, PRCA, RCC, SCLC, UEC

Substance: 88 (MPDPHLYHQM; listed as Homo sapiens) [compound 88]
- Peptide Presentation on cancer entities: CLL
- Peptide Presentation on tumor types: MEL, NHL, NSCLCsquam

Substance: 206 (SLMDLQERL; listed as Homo sapiens) [compound 206]
- Peptide Presentation on cancer entities: CLL
- Peptide Presentation on tumor types: BRCA, CCC, CRC, GBC, GBM, GEJC, HCC, HNSCC, MEL, NHL, NSCLCadeno, NSCLCother, NSCLCsquam, OC, OSCAR, PACA, PRCA, RCC, SCLC, UEC

Substance: 93 (KARKSAGAA; listed as Homo sapiens) [compound 93]
- Peptide Presentation on cancer entities: CLL

Substance: 65 (AYLKQVLLF; listed as Homo sapiens) [compound 65]
- Peptide Presentation on cancer entities: CLL
- Peptide Presentation on tumor types: BRCA, CCC, CRC, GBC, GBM, GC, HCC, MEL, NHL, NSCLCadeno, NSCLCother, NSCLCsquam, OC, OSCAR, PACA, PRCA, RCC, SCLC, UBC, UEC

Substance: 181 (GEIKEPLEI; listed as Homo sapiens) [compound 181]
- Peptide Presentation on cancer entities: CLL
- Peptide Presentation on tumor types: BRCA, CCC, CRC, GBC, GC, HCC, HNSCC, MEL, NHL, NSCLCadeno, NSCLCother, NSCLCsquam, OC, OSCAR, PACA, RCC, UEC

Substance: 235 (SPSLPSRTL; listed as Homo sapiens) [compound 235]
- Peptide Presentation on cancer entities: CLL

Substance: 95 (KPKAAKPKTA; listed as Homo sapiens) [compound 95]
- Peptide Presentation on cancer entities: CLL

Substance: 231 (MPLSTIREV; listed as Homo sapiens) [compound 231]
- Peptide Presentation on cancer entities: AML, CML
- Peptide Presentation on tumor types: BRCA, CRC, GBC, GBM, GC, HCC, HNSCC, MEL, NHL, NSCLCadeno, NSCLCsquam, OC, OSCAR, PACA, PRCA, RCC, SCLC, UBC, UEC

Substance: 162 (DEAQARAAF; listed as Homo sapiens) [compound 162]
- Peptide Presentation on cancer entities: AML
